In experiment [1] the target is T1, GST-Rab5 (Drosophila, wild type) (Drosophila melanogaster) (UniProt Q9V3I2).
T1 sequence: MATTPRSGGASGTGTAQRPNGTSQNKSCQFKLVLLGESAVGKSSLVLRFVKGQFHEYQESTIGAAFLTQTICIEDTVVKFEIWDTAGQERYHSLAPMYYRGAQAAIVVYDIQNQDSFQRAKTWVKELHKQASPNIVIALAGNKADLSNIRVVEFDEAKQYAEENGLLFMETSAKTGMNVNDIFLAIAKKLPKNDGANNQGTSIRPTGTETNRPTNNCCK
Briefly: pull-down; GST-Rab5 on Glutathione Sepharose 4B beads loaded with GTP (90 min, room temperature); S2 cell lysate with the EGFP-tagged Rbpn-5 construct added, 2 h at 4 °C; washed with 250 mM NaCl; blot with anti-Rbpn-5 or anti-EGFP; only the target purified.

Amino acid sequences for entries named in this document (tags omitted). A change or cut given only in a name is not applied to a line headed by its entry.
UniProt O76742: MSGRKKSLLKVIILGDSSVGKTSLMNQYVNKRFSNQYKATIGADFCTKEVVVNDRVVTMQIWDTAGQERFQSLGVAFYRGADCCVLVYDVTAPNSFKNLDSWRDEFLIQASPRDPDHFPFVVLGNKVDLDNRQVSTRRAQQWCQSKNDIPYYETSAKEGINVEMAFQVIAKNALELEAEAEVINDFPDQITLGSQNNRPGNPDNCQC
UniProt Q9W0H9: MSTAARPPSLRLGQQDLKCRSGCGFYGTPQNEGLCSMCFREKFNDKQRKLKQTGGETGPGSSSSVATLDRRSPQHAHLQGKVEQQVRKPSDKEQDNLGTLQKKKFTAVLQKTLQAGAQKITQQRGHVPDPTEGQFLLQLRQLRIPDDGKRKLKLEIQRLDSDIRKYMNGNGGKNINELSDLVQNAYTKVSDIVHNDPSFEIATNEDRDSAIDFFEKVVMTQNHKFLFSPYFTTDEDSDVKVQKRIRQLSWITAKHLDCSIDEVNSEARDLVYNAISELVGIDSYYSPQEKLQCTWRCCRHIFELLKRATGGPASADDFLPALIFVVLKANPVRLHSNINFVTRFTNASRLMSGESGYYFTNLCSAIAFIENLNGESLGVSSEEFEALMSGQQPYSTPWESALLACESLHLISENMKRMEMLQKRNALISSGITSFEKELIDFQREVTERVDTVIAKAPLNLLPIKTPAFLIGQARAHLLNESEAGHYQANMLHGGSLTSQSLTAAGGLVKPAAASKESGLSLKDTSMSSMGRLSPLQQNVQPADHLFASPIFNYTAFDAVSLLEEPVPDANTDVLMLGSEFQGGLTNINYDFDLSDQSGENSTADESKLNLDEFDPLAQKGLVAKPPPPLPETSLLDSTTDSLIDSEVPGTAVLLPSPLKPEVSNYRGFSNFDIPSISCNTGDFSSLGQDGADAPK
UniProt Q9W2M0: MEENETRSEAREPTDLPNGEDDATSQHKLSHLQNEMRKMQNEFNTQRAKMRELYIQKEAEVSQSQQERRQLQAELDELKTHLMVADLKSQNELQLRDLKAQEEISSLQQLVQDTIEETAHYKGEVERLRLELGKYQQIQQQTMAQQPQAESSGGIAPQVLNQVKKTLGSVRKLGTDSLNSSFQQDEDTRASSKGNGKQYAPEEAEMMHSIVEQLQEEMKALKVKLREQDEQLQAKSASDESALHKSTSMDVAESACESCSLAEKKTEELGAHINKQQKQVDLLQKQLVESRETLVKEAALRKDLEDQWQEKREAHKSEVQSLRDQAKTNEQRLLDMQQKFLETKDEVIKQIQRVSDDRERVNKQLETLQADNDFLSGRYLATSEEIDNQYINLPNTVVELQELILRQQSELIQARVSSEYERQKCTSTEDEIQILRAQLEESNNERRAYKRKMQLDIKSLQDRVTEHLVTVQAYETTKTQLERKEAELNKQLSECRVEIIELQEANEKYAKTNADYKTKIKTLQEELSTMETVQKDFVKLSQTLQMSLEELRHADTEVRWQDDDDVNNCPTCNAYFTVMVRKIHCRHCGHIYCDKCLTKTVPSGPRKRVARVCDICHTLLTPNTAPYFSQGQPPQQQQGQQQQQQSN

In experiment [2] the target is T1, GST-Rab5 (Drosophila, wild type) (Drosophila melanogaster). Briefly: pull-down; GST-Rab5 on Glutathione Sepharose 4B beads loaded with GDP (90 min, room temperature); S2 cell lysate with EGFP-Rbpn-5 added, 2 h at 4 °C; washed with 250 mM NaCl; blot with anti-Rbpn-5; only the target purified.
The target in experiment [3] is T2, GST-CA-Rab5 (Drosophila Rab5Q88L, constitutively active) (Drosophila melanogaster) (UniProt Q9V3I2).
T2 sequence: T1 sequence with Q88L
The experiment can be described thus: pull-down; GST-tagged protein (Rab5 mutants, other Rabs, Rabex-5) on glutathione beads, nucleotide loading not stated for these; S2 cell lysate with EGFP-Rbpn-5 added, 2 h at 4 °C; washed with 250 mM NaCl; blot with anti-Rbpn-5; only the target purified.

The target of experiment [4] is GST-DN-Rab5 (Drosophila dominant-negative Rab5, printed Rab5N43S) (Drosophila melanogaster) (UniProt Q9V3I2). The description is as above.
The target of experiment [5] is T3, GST-Rab11 (Drosophila) (Drosophila melanogaster) (UniProt O18335).
T3 sequence: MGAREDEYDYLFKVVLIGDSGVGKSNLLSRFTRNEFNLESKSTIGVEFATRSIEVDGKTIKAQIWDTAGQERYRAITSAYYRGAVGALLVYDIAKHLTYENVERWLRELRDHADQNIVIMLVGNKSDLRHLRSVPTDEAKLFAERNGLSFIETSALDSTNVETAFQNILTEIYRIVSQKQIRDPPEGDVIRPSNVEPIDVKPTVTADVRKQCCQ
Described as above.

For experiment [6], the target named is GST-Rab7 (Drosophila) (Drosophila melanogaster) (UniProt O76742). The experiment is described as above.
Experiment [7] concerns the target GST-Rabex-5 (Drosophila) (Drosophila melanogaster) (UniProt Q9W0H9). The experiment is described as above.

Where a chain is given by its changes, count along the chain named. These are yes or no findings as the source states them, for the method shown. In cells and extracts the contact can be indirect. For part of these data: A result given as binding can be weak or reduced; the word gives no strength. For part of these data: Sequences can lack the tags named with a protein.

Take “EGFP-Rbpn-5-N (N-terminal half of Rbpn-5, amino acids 1-345) (Drosophila melanogaster) (domain or fragment)”: the binding result in experiment [1] was “no binding”.
For the substance “EGFP-Rbpn-5-C (C-terminal half of Rbpn-5, amino acids 340-642) (Drosophila melanogaster) (domain or fragment)”, the binding entry in experiment [1] is reported as “binds”.
On to “EGFP-Rbpn-5 (Drosophila Rabaptin-5, full length) (from UniProt Q9W2M0)”, for which the binding result in experiment [2] is reported as “no binding (only in the presence of GDP)”; in experiment [3] it was “binds”; in experiment [4], “no binding”; in experiment [5], “no binding”; in experiment [6], “no binding”; in experiment [7] it was “binds”. In experiment [1], the binding result is given as “binds”.
